Test results from PubChem BioAssay AID1347076 (National Center for Advancing Translational Sciences (NCATS), 2019).
The campaign covered roughly 400,000 compounds. About 13,000 (3.2%) were called active. This list was built around the results that the source calls inconclusive (neither active nor inactive); the mix of calls is not that of the screen. The call rests on the fitted dose curve; in most records, active means well fitted cell-killing curve with a large enough effect; inconclusive means small, poorly fitted or top-dose-only effect, or effect the other way; inactive means flat fitted curve, though single readings scatter. Potencies of inconclusive entries are doubtful fits and often do not repeat.

Experiment: qHTS assay for MDR1-selective chemotherapeutics: Primary screen using the drug-selected MDR subline cells KB-V1; further: nearly all actives have a fitted effect of over 60% in size
Conditions: KB-V1 MDR cells viability, CellTiter-Glo, 72 h; activity change, negative = cytotoxicity: at 46.1 µM (top of the series)
Outline: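 KB-V1 cells (P-gp-expressing MDR subline of KB-3-1) in phenol-red-free DMEM with 10% FBS were exposed to library compounds over a concentration series for 72 h at 37 degrees C. Viability read by CellTiter-Glo luminescence; concentration-effect curves fitted after normalization.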
On the % scale 0 is the no-effect control and ±100 the full control effect; potency means the concentration at half of the fitted maximal effect.

| Structure (SMILES) | Potency | activity change, negative = cytotoxicity |
| --- | --- | --- |
| CCN(C(=O)c1cc2c(=O)oc3ccc(C)cc3c2s1)c1ccccc1F | inactive |  |
| CN1CCN(C2CN(Cc3cn(Cc4ccc(Cl)cc4)nn3)S(=O)(=O)C2)CC1 (stereo not given) | inactive |  |
| CCCN(C(=O)c1ccccc1Cc1ccccc1)C1CCS(=O)(=O)C1 (stereo not given) | inconclusive: 18.4 µM [cytotoxic, single point] |  |
| CCOc1ncccc1C(=O)OCc1ccc(C(=O)OC)o1 | inconclusive: 9.2 µM [rising, partial curve, poor fit] |  |
| N#Cc1ccc(C(=O)Nc2cc(S(=O)(=O)N3CCOCC3)ccc2N2CCCC2)cc1 | inconclusive: 16.4 µM [cytotoxic, partial curve] |  |
| Cc1ccc2nc(SCC(=O)NCc3ccco3)c(C)cc2c1 | inconclusive: 18.4 µM [cytotoxic, partial curve, poor fit] |  |
| CCOc1ccc(-c2oc3cc(Cl)ccc3c(=O)c2O)cc1OC | inconclusive: 7.31 µM [cytotoxic, partial curve] |  |
| CSc1ccccc1C(=O)OCC(=O)Nc1ccc(N2CCOCC2)cc1 | active: 20.6 µM |  |
| CCOC(=O)CCNC(=O)CNC(=O)OCc1ccccc1 | inconclusive: 29.1 µM [rising, single point] |  |
| CC(C)C1Cc2c(sc3ncnc(NN)c23)CO1 (stereo not given) | inconclusive: 23.1 µM [cytotoxic, single point] |  |
| O=[N+]([O-])c1ccc(/C=N/NS(=O)(=O)c2ccc(Cl)cc2)o1 | inconclusive: 20.6 µM [cytotoxic, partial curve, poor fit] |  |
| COc1ccc(-n2nc3ccc(NS(C)(=O)=O)cc3n2)cc1Cl | inactive |  |
| CC(C)(C)C1CCc2c(C(=O)NNC(=O)/C=C/C(=O)O)csc2C1 (stereo not given) | inconclusive: 10.3 µM [rising, partial curve, poor fit] |  |
| COC(=O)c1ccc(N2CCN(CC(=O)c3ccc(C)cc3)CC2)c([N+](=O)[O-])c1 | inconclusive: 20.6 µM [cytotoxic, single point] |  |
| C/C(CC(=O)Nc1ccc(C)c(Cl)c1)=N\NC(=O)Cc1ccccc1 | inconclusive: 29.1 µM [rising, single point] |  |
| COc1ccc(OC)c2[nH]c(=O)c(CCNC(=O)c3ccc(S(=O)(=O)N4CCCCC4)cc3)cc12 | active: 8.2 µM |  |
| Cc1csc(NC(=O)/C=C/c2ccc(C)o2)n1 | inactive |  |
| CCCCNc1nc2c(c(=O)n(C)c(=O)n2C)n1CCC | inactive |  |
| Nc1c(C(=O)c2ccccc2)sc2c1c(=O)[nH]c(=O)n2-c1ccccc1 | active: 14.6 µM |  |
| CCC1SC(CC)C(=O)N(CC(=O)NCc2ccc(F)cc2)C1=O (stereo not given) | inactive |  |
| CC(NC(=O)CN(C)S(=O)(=O)c1ccc(F)cc1)C1CC2CCC1C2 (stereo not given) | inconclusive: 23.1 µM [cytotoxic, single point] |  |
| COc1ccc(C=C2OC(=O)C(C(C)=O)=C2O)cc1 | inconclusive: 20.6 µM [cytotoxic, partial curve, poor fit] |  |
| Brc1cc(Br)cc(CN2CCSCC2)c1 | inconclusive: 5.8 µM [rising, full curve] |  |

| Structure (SMILES) | Potency | activity change, negative = cytotoxicity |
| --- | --- | --- |
| O=C(Nc1nncs1)c1cc2c(s1)CCC2 | inconclusive: 13 µM [rising, single point] |  |
| CCCc1cc(=O)[nH]c(SCC(=O)Nc2cc(S(=O)(=O)N3CCCCC3)ccc2Cl)n1 | inconclusive: 23.1 µM [cytotoxic, single point] |  |
| COc1ccc(C(C)=O)cc1Cn1c(C)c(C(=O)NCc2cccc(C(F)(F)F)c2)sc1=O | active: 18.4 µM |  |
| O=C(c1ccc2nc[nH]c2c1)N1CCN(c2ncc(C(F)(F)F)cc2Cl)CC1 | inconclusive: 16.4 µM [cytotoxic, single point] |  |
| c1ccc(Cc2nnc3sc(-c4ccccn4)nn23)cc1 | active: 16.4 µM |  |
| O=[N+]([O-])c1ccc(N/N=C/c2cccc(O)c2O)cc1 | inactive |  |
| CC(C)c1ccccc1NC(=S)NC(C)c1ccccc1 (stereo not given) | inconclusive: 20.6 µM [cytotoxic, single point] |  |
| CCCCn1c(-c2ccccc2)cnc1SCC(=O)NCCc1ccc(OC)c(OC)c1 | inconclusive: 20.6 µM [cytotoxic, single point] |  |
| CCc1ccc(CN(C(=O)c2cccs2)C2CCS(=O)(=O)C2)cc1 (stereo not given) | inconclusive: 5.17 µM [cytotoxic, partial curve] |  |
| CC12CCC(C(=O)N3CCN(C(c4ccccc4)c4ccccc4)CC3)(OC1=O)C2(C)C (stereo not given) | inactive |  |
| O=C(Oc1c(-c2ccccc2)c(=O)n2c3c(cccc13)CC2)c1ccccc1 |  | inconclusive: 0% |
| Cc1ccc(N2CCCCn3c2nc2c3c(=O)n(CC(=O)O)c(=O)n2C)cc1 | inconclusive: 0.0073 µM [cytotoxic, full curve, poor fit] |  |
| c1ccc(N=c2nc(-c3ccccc3)n(-c3ccccc3)s2)cc1 | active: 16.4 µM |  |
| NC(=O)CC(NC(=S)NCc1ccccc1)C(=O)O (stereo not given) | inactive |  |
| O=C1/C(=C/c2ccc(N3CCOCC3)o2)SC(=Nc2ccccc2)N1CCc1c[nH]c2ccccc12 | inconclusive: 8.2 µM [cytotoxic, partial curve, poor fit] |  |
| COc1ccc(C2CC(=O)c3ccccc3O2)cc1 (stereo not given) | inconclusive: 32.6 µM [cytotoxic, single point] |  |
| COc1ccc2nc(C)cc(SCC(=O)Nc3c(C)cccc3C)c2c1 | inconclusive: 6.51 µM [cytotoxic, partial curve] |  |
| COc1ccc(C(=O)Nc2cc(C)nn2-c2ccc(C)cc2)cc1 | inactive |  |
| Cc1ccc(-c2cc(C(F)F)nc(S(C)(=O)=O)n2)cc1 | inconclusive: 18.4 µM [cytotoxic, single point] |  |
| CCN(CC(=O)NC1CCS(=O)(=O)C1)S(=O)(=O)c1ccc(Br)cc1 (stereo not given) | inactive |  |
| O=C1CC(c2cccc(Cl)c2)c2cc3c(cc2N1)CCC3 (stereo not given) | active: 8.2 µM |  |
| C#CCOCCOCCOCCNc1nc(N2CCN(C(=O)[C@H]([C@@H](C)CC)n3cc([C@@H](N)Cc4ccc(O)cc4)nn3)CC2)nc(N2CCN(C(=O)[C@H](Cc3cc4ccccc4[nH]3)n3cc([C@@H](N)CC(C)C)nn3)CC2)n1 | inactive |  |

Full records from above:
CCOc1ncccc1C(=O)OCc1ccc(C(=O)OC)o1 is listed with Potency: inconclusive: 9.2 µM [rising, partial curve, poor fit]
O=C1/C(=C/c2ccc(N3CCOCC3)o2)SC(=Nc2ccccc2)N1CCc1c[nH]c2ccccc12 is listed with Potency: inconclusive: 8.2 µM [cytotoxic, partial curve, poor fit]
Nc1c(C(=O)c2ccccc2)sc2c1c(=O)[nH]c(=O)n2-c1ccccc1 is listed with Potency: active: 14.6 µM
COc1ccc(C(=O)Nc2cc(C)nn2-c2ccc(C)cc2)cc1 is listed with Potency: inactive
